{"source": "patent US5527690", "key": {"[1]": {"test_system": "SREBP (HeLa, affinity purified, 59-68 kDa cluster of SREBP-1 and SREBP-2) (Homo sapiens)", "test": "EMSA", "conditions": "purified native protein, protein details: HeLa S3 nuclei, SRE-1 DNA affinity purified, label: 32P"}, "[2]": {"test_system": "SREBP (partially purified, rat liver nuclei) (Rattus norvegicus)", "test": "EMSA", "conditions": "purified native protein, label: 32P"}, "[3]": {"test_system": "SREBP (HeLa, affinity purified, 59-68 kDa cluster of SREBP-1 and SREBP-2) (Homo sapiens)", "test": "footprint", "conditions": "DNase I, purified native protein, protein details: HeLa S3 nuclei, SRE-1 DNA affinity purified, label: 32P"}, "[4]": {"test_system": "SREBP (HeLa, affinity purified, 59-68 kDa cluster of SREBP-1 and SREBP-2) (Homo sapiens)", "test": "binding assay", "conditions": "purified native protein, protein details: HeLa S3 nuclei, SRE-1 DNA affinity purified"}, "SREBP-1a (Homo sapiens)": {"biological_target": "SREBP-1a (Homo sapiens) (UniProt P36956)", "test": "activity in cells", "conditions": "CAT reporter stimulated, 293 cells; protein in cells; protein details: pCMV7 expression in 293 cells; only the site is given"}, "[5]": {"conditions": "also described as markedly reduced"}}, "note": "For part of these data: For at least one entry, the source does not settle the construct or the ends of the probe. For part of these data: A negative result means that nothing was seen under these conditions."}
{"sequence": "AAAAGCACCCCACTGCAA (double strand) [Repeat 2 mutant P]", "values": [{"measurement": "binding result", "setting": "[1]", "value": "no binding"}, {"measurement": "binding result", "setting": "[2]; [5]", "value": "no binding"}]}
{"sequence": "AAAATAACCCCACTGCAA (double strand) [Repeat 2 mutant Q]", "values": [{"measurement": "binding result", "setting": "[1]", "value": "no binding"}, {"measurement": "binding result", "setting": "[2]; [5]", "value": "no binding"}]}
{"sequence": "AAAATCAACCCACTGCAA (double strand) [Repeat 2 mutant S]", "values": [{"measurement": "binding result", "setting": "[1]", "value": "no binding"}, {"measurement": "binding result", "setting": "[2]; [5]", "value": "no binding"}]}
{"sequence": "AAAATCACCCAACTGCAA (double strand) [Repeat 2 mutant V]", "values": [{"measurement": "binding result", "setting": "[1]", "value": "no binding"}, {"measurement": "binding result", "setting": "[2]; [5]", "value": "no binding"}]}
{"sequence": "AAAATCACCCCAATGCAA (double strand) [Repeat 2 mutant X (Probe *)]", "values": [{"measurement": "binding result", "setting": "[1]", "value": "no binding"}, {"measurement": "binding result", "setting": "[2]; [5]", "value": "no binding"}, {"measurement": "binding result", "setting": "[3]; SREBP footprint abolished", "value": "no binding"}]}
{"sequence": "AAAATCACCCCACGGCAA (double strand) [Repeat 2 mutant Y]", "values": [{"measurement": "binding result", "setting": "[1]", "value": "binds"}, {"measurement": "binding result", "setting": "[2]", "value": "binds"}]}
{"sequence": "AAAATCACCCCACTGAAA (double strand) [Repeat 2 mutant AA]", "values": [{"measurement": "binding result", "setting": "[1]", "value": "binds"}, {"measurement": "binding result", "setting": "[2]", "value": "binds"}]}
{"sequence": "AAAATCACCCCACTGCAA (double strand) [Repeat 2 wild-type human (Probe H, Plasmid K)]", "values": [{"measurement": "binding result", "setting": "[1]; 2 tandem Repeat 2+3 copies, stimulated by milk proteins", "value": "binds"}, {"measurement": "binding result", "setting": "[2]; 2 tandem Repeat 2+3 copies, room temperature, 6 mM MgCl2", "value": "binds"}, {"measurement": "binding result", "setting": "[3]; SRE-1 in Repeat 2 protected", "value": "binds"}, {"measurement": "binding result", "setting": "[4]; UV crosslinking with BrdU probe, label: 32P", "value": "binds"}, {"measurement": "activity on this sequence", "setting": "SREBP-1a (Homo sapiens)", "value": "active"}]}
{"sequence": "AAAATCACCCCACTGCAAACTCCTCCCCCTGC (double strand) [Repeat 2+3 single copy]", "values": [{"measurement": "binding result", "setting": "[1]; only one shifted band", "value": "binds"}]}
{"sequence": "AAAATCACCCCACTGCAT (double strand) [Repeat 2 mutant AC]", "values": [{"measurement": "binding result", "setting": "[2]", "value": "binds"}]}
{"sequence": "AAAATCACCCCACTGCTA (double strand) [Repeat 2 mutant AB]", "values": [{"measurement": "binding result", "setting": "[2]", "value": "binds"}]}
{"sequence": "AAAATCACCCCACTTCAA (double strand) [Repeat 2 mutant Z]", "values": [{"measurement": "binding result", "setting": "[1]", "value": "binds"}, {"measurement": "binding result", "setting": "[2]", "value": "binds"}]}
{"sequence": "AAAATCACCCCATTGCAA (double strand) [Repeat 2 mouse wild-type (Probe M, Plasmid AE)]", "values": [{"measurement": "binding result", "setting": "[1]", "value": "binds"}]}
{"sequence": "AAAATCACCCCTCTGCAA (double strand) [Repeat 2 mutant W]", "values": [{"measurement": "binding result", "setting": "[1]", "value": "no binding"}, {"measurement": "binding result", "setting": "[2]; [5]", "value": "no binding"}]}
{"sequence": "AAAATCACCGCACTGCAA (double strand) [Repeat 2 mutant U]", "values": [{"measurement": "binding result", "setting": "[1]", "value": "no binding"}, {"measurement": "binding result", "setting": "[2]; [5]", "value": "no binding"}]}
{"sequence": "AAAATCACGCCACTGCAA (double strand) [Repeat 2 mutant T]", "values": [{"measurement": "binding result", "setting": "[1]; position 6 C to G", "value": "binds"}, {"measurement": "binding result", "setting": "[2]; position 6 mutant", "value": "binds"}]}
{"sequence": "AAAATCTCCCCACTGCAA (double strand) [Repeat 2 mutant R]", "values": [{"measurement": "binding result", "setting": "[1]", "value": "no binding"}, {"measurement": "binding result", "setting": "[2]; [5]", "value": "no binding"}]}
{"sequence": "AAATTCACCCCACTGCAA (double strand) [Repeat 2 mutant O]", "values": [{"measurement": "binding result", "setting": "[1]", "value": "no binding"}, {"measurement": "binding result", "setting": "[2]; [5]", "value": "no binding"}]}
{"sequence": "AATATCACCCCACTGCAA (double strand) [Repeat 2 mutant N]", "values": [{"measurement": "binding result", "setting": "[1]", "value": "binds"}, {"measurement": "binding result", "setting": "[2]", "value": "binds"}]}
{"sequence": "ATAATCACCCCACTGCAA (double strand) [Repeat 2 mutant M]", "values": [{"measurement": "binding result", "setting": "[1]", "value": "binds"}, {"measurement": "binding result", "setting": "[2]", "value": "binds"}]}
{"sequence": "GATCATCACCCCACTG / GATCCAGTGGGGTGAT [Column C oligo, SRE-1 only]", "values": [{"measurement": "binding result", "setting": "[4]; DNA affinity column, eluted peak 0.6 M NaCl", "value": "binds"}]}
{"sequence": "TAAATCACCCCACTGCAA (double strand) [Repeat 2 mutant L]", "values": [{"measurement": "binding result", "setting": "[1]", "value": "binds"}, {"measurement": "binding result", "setting": "[2]", "value": "binds"}]}
{"sequence": "TCGACAAAAGATAAGATATGCAAACTCCTCCCCCTGCG / TCGACGCAGGGGGAGGAGTTTGCATATCTTATCTTTTG [Column A oligo, scrambled SRE-1 Repeat 2 + Repeat 3]", "values": [{"measurement": "binding result", "setting": "[4]; DNA affinity column flow-through, variant of Repeat 2+3 single copy", "value": "no binding"}]}
{"sequence": "TCGACAAAATCACCCCACTGTAAAATCACCCCACTGTG / TCGACACAGTGGGGTGATTTTACAGTGGGGTGATTTTG [Column B oligo, two tandem Repeat 2]", "values": [{"measurement": "binding result", "setting": "[4]; DNA affinity column, retained at 0.3 M, eluted 1 M KCl", "value": "binds"}]}
